Experimental data: PubChem BioAssay AID1259425 (University of Nebraska Medical Center, 2018)
Test: 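Find knockdowns that reproduce the gene expression pattern seen when KSR1 is lost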 (primary screen). System: HCT116 human colon cancer cells. Reagent: siRNA pool against human genes, 50 nM siRNA. Measurement: 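mRNA of six signature genes measured together by branched-DNA assay after 50 nM siRNA pool, blank removed, divided by geometric mean of two housekeeping genes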. Scale: BNIP3L mRNA: higher = more BNIP3L transcript after knockdown; NDRG1 mRNA: higher = more NDRG1 transcript after knockdown; BNIP3 mRNA: higher = more BNIP3 transcript after knockdown; ALDOC mRNA: higher = more ALDOC transcript after knockdown; ACSL5 mRNA: higher = more ACSL5 transcript after knockdown.
The deposit covers about 14,000 reagents; below is an unselected part. Reagent sequences are not shown. Not stated in the record: the time to read-out.

no.	gene	BNIP3L mRNA, set 1	NDRG1 mRNA, set 1	BNIP3 mRNA, set 1	ALDOC mRNA, set 1	ACSL5 mRNA, set 1
1	MRPL14 (mitochondrial ribosomal protein L14)	0.123	0.156	0.271	0.00724	0.0802
2	TM7SF3 (transmembrane 7 superfamily member 3)	0.143	0.385	0.492	0.0329	0.31
3	MRPS31 (mitochondrial ribosomal protein S31)	0.112	0.261	0.413	0.0413	0.198
4	COMMD5 (COMM domain containing 5)	0.058	0.179	0.13	0.0108	0.102
5	IFIH1 (interferon induced with helicase C domain 1)	0.0801	0.154	0.263	0.0195	0.234
6	IKZF2 (IKAROS family zinc finger 2)	0.107	0.22	0.309	0.00296	0.364
7	C1orf54 (chromosome 1 open reading frame 54)	0.15	0.311	0.404	0.0335	0.274
8	RFWD3 (ring finger and WD repeat domain 3)	0.182	0.16	0.251	0.0504	0.129
9	MPP1 (MAGUK p55 scaffold protein 1)	0.174	0.175	0.319	0.0103	0.215
10	POLR3F (RNA polymerase III subunit F)	0.123	1.14	0.378	0.0363	0.192
11	MED1 (mediator complex subunit 1)	0.0735	0.326	0.234	0.0224	0.154
12	CHRAC1 (chromatin accessibility complex subunit 1)	0.131	0.148	0.287	0.0352	0.321
13	KRT12 (keratin 12)	0.0848	0.0826	0.3	0.0266	0.0646
14	ISY1 (ISY1 spliceosome associated protein)	0.0758	0.16	0.237	0.068	0.132
15	FBXL5 (F-box and leucine rich repeat protein 5)	0.0553	0.294	0.254	0.0203	0.133
16	OPN5 (opsin 5)	0.134	0.208	0.367	0.0566	0.228
17	L1CAM (L1 cell adhesion molecule)	0.147	0.275	0.172	0.00457	0.208
18	OR2F1 (olfactory receptor family 2 subfamily F member 1)	0.156	1	0.41	0.0818	0.215
19	NDUFAF7 (NADH:ubiquinone oxidoreductase complex assembly factor 7)	0.121	0.0649	0.236	0.0132	0.0492
20	MAPK12 (mitogen-activated protein kinase 12)	0.195	0.381	0.347	0.00951	0.38
21	REXO4 (RNA exonuclease 4)	0.071	1.21	0.214	0.0242	0.162
22	FGF6 (fibroblast growth factor 6)	0.0996	0.291	0.284	0.0449	0.174
23	PNPLA4	0.0694	0.166	0.277	0.0246	0.137
24	UBXN8 (UBX domain protein 8)	0.109	0.111	0.514	0.0648	0.198
25	MMAB (metabolism of cobalamin associated B)	0.152	0.189	0.433	0.032	0.151
26	DUSP1 (dual specificity phosphatase 1)	0.133	0.525	0.439	0.00471	0.377
27	DPYSL2 (dihydropyrimidinase like 2)	0.0633	0.22	0.219	0.0331	0.0769
28	MAGEA6 (MAGE family member A6)	0.0454	0.0609	0.201	0.0235	0.113
29	MED27 (mediator complex subunit 27)	0.122	0.33	0.267	0.0351	0.0468
30	DELE1 (DAP3 binding cell death enhancer 1)	0.0805	0.265	0.35	0.0295	0.293
31	TGIF1 (TGFB induced factor homeobox 1)	0.144	0.213	0.335	0.0244	0.17
32	CASP8 (caspase 8)	0.0753	0.156	0.223	0.0183	0.166
33	TSLIG3A (tRNA splicing ligase complex subunit 3A)	0.234	0.384	0.774	0.0605	0.204
34	DDX41 (DEAD-box helicase 41)	0.0899	0.117	0.426	0.0256	0.178
35	TREH (trehalase)	0.149	0.153	0.319	0.01	0.123
36	BLK (BLK proto-oncogene, Src family tyrosine kinase)	0.221	0.198	0.824	0.0115	0.159
37	PIGV (phosphatidylinositol glycan anchor biosynthesis class V)	0.0642	0.147	0.316	0.00386	0.0562
38	ANGPTL6 (angiopoietin like 6)	0.338	0.386	0.438	0.17	0.573
39	SAG (S-antigen visual arrestin)	0.134	0.078	0.383	0.0202	0.239
40	QRSL1 (glutaminyl-tRNA amidotransferase subunit QRSL1)	0.142	0.208	0.259	0.0292	0.197
41	RAG2 (recombination activating 2)	0.124	0.278	0.384	0.0621	0.148
42	POMT2 (protein O-mannosyltransferase 2)	0.0602	0.387	0.218	0.00537	0.324
43	ERH (ERH mRNA splicing and mitosis factor)	0.0866	0.134	0.384	0.0232	0.267
44	PLD3 (phospholipase D family member 3)	0.133	0.315	0.307	0.0176	0.217
45	BASP1 (brain abundant membrane attached signal protein 1)	0.0743	0.225	0.301	0.0275	0.0944
46	UBC (ubiquitin C)	0.0837	0.243	0.169	0.0242	0.317
47	UQCRH (ubiquinol-cytochrome c reductase hinge protein)	0.155	0.461	0.125	0.0274	0.202
48	ZBTB39 (zinc finger and BTB domain containing 39)	0.19	0.348	0.355	0.0181	0.136
49	MCOLN1 (mucolipin TRP cation channel 1)	0.0861	0.432	0.36	0.0177	0.159
50	PHLPP2 (PH domain and leucine rich repeat protein phosphatase 2)	0.0903	0.19	0.309	0.0127	0.14

Part of the list above, reduced to “NDRG1 mRNA, set 1”:
BLK (BLK proto-oncogene, Src family tyrosine kinase) = 0.198
PIGV (phosphatidylinositol glycan anchor biosynthesis class V) = 0.147
ANGPTL6 (angiopoietin like 6) = 0.386
SAG (S-antigen visual arrestin) = 0.078
QRSL1 (glutaminyl-tRNA amidotransferase subunit QRSL1) = 0.208
